Source: patent US20250002593A1
Results are given in words; binding and its absence hold for the method and conditions named.

Protein sequences, listed by entry. Tags and fused reporters are not part of them. Residues count along the entry.
UniProt Q9ERS7, residues 22-574: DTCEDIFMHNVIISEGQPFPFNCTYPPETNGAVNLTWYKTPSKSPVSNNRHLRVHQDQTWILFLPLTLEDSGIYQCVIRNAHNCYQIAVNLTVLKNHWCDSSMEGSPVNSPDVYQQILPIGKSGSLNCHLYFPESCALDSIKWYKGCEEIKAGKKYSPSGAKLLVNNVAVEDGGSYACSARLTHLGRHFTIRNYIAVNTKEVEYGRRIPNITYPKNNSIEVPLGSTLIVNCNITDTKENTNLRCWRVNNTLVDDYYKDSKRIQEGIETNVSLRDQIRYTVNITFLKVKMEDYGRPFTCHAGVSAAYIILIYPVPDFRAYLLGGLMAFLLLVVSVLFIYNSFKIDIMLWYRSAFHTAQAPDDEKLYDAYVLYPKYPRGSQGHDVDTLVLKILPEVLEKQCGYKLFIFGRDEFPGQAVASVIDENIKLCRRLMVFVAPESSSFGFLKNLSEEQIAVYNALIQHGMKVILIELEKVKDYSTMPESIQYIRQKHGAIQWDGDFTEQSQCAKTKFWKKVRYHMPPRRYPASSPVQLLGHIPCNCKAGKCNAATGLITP

B1: ANB019 (antibody, V domains shown)
VH: QVQLVQSGAEVKKPGASVKVSCKASGYTFTNYWMNWVRQAPRQGLEWMGMFHPTGDVTRLNQKFKDRVTMTRDTSTSTVYMELSSLRSEDTAVYYCARTTSMIIGGFAYWGQGTLVTVSS
VL: DIVMTQTPLSLSVTPGQPASISCRSSKSLLHRNAITYFYWYLHKPGQPPQLLIYQMSNLASGVPDRFSGSGSGTDFTLKISRVEAEDVGVYYCAQNLELPLTFGGGTKVEIK
B2: BI655130 (antibody, V domains shown)
VH: QVQLVQSGAEVKKPGASVKVSCKASGYSFTSSWIHWVKQAPGQGLEWMGEINPGNVRTNYNENFRNKVTMTVDTSISTAYMELSRLRSDDTAVYYCTVVFYGEPYFPYWGQGTLVTVSS
VL: QIVLTQSPGTLSLSPGERATMTCTASSSVSSSYFHWYQQKPGQAPRLWIYRTSRLASGVPDRFSGSGSGTDFTLTISRLEPEDAATYYCHQFHRSPLTFGAGTKLEIK
B3: REGN14 (antibody, V domains shown)
VH: EVQLVESGGDLVQPGRSLRLSCAASGFTFDDYAMHWVRQAPGKGLEWVSVISWNSDVIAYSDSVKGRFTISRDNAKNSLYLQMNSLRTEDTALYYCTKGHKWSFFDYWGQGTLVTVSS
VL: EIVLTQSPATLSLSPGERATLSCRASQSISSYLAWYQQKPGQAPRLLIFNVANRATDIPARFSGSGSGTDFTLTISSLEPEDFAVYYCQQRSNWPLTFGGGTKVEIK

Target: membrane mouse IL-36R (mouse) (UniProt Q9ERS7)
Experiment: binding to mouse IL-36R; the legend and Example 8 say membrane mouse IL-36R on transfected HEK293 cells by FACS, but the y axis on the sheet is OD450 nm

binding, no binding (tested: 10 µg/mL):
B1
B2
B3
